According to the supplement of paper PMC3334620:
The full ranking holds about 33,000 sequences; the median of “E-score (-0.5 to 0.5)” is about -0.016, and the highest 2% start at about 0.3. Some of the results follow.

Target: T1, Yer184c (UniProt P39961)
T1 sequence: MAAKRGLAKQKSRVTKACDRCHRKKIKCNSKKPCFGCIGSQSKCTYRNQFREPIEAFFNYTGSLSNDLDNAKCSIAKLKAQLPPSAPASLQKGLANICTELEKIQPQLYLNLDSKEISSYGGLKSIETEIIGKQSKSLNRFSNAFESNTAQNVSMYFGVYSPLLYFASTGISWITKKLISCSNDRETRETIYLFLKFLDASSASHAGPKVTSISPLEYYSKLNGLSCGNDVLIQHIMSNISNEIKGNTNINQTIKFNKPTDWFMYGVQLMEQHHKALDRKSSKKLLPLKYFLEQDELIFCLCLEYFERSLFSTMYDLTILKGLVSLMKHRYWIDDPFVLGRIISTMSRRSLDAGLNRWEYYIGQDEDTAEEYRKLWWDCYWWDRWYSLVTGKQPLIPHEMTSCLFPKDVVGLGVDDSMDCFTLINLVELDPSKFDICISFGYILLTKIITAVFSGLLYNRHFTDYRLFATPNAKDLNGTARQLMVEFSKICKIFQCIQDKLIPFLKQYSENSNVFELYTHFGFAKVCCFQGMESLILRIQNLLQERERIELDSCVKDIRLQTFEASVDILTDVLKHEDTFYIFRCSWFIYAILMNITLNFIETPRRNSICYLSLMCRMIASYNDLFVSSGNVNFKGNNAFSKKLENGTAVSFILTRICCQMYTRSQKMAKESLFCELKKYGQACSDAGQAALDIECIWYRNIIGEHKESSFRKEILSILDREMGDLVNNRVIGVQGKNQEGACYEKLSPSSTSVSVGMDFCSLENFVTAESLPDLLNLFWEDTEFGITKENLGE
Assay: PBM E-score (8-mer binding enrichment) (E-score (-0.5 to 0.5)); higher = stronger / more preferred TF binding
Conditions: protein concentration: 100 nM; construct: GST-full length
In short: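 Using PURExpress in vitro transcription/translation, GST-tagged yeast transcription factors were made in full-length or DNA-binding-domain form. These were applied at about 100-200 nM to double-stranded universal all-10-mer Agilent arrays, and bound protein was detected with fluorescent anti-GST. Scans were normalised with masliner before the Universal PBM Analysis Suite assigned E-scores to ungapped eight-base words pooled with their reverse complements.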

Sequence	PBM E-score
CAGGAGAC	-0.135
GCATCCTA	-0.00376
ACAACGGT	-0.0406
ACACGGTA	0.0286
TAGCTGCA	-0.221
ATATGGGC	-0.119
AAACGATG	0.116
CCACCGAC	-0.0887
AAAGAGAT	0.0167
TACAGATA	0.134
AATCCTGC	-0.119
ACGCGCAC	-0.0803
GAAGAGCA	-0.0841
CAAGAGCA	-0.211
ATCCACCA	-0.189
CCACGCAA	-0.0475
CTTGCTTA	-0.124
ATATGCCA	-0.0465
AACCCGGT	0.115
TACACCGA	0.118
GAAAAGGC	-0.0855
GTGCCTGA	-0.173
AACACATA	0.183
TCAACAAA	0.156
AGGCAGCC	-0.039

Sequence	PBM E-score
AAAACGGG	0.138
AATTGGGG	-0.256
GAAGCTCA	0.0353
CGCCTCCC	-0.31
AGAATGAA	0.172
TAGTTGGA	-0.00038
AGACGGTA	0.022
TCGGCTAA	0.313
GCTCAGAC	-0.0881
AACCCGTT	-0.11
ACTCGAGT	0.184
CACCCAGC	-0.161
CACCACCG	-0.137
AGACTGCC	-0.0985
ACTAAGCT	0.0231
AGAAGCGG	-0.0611
AGCCAGTC	-0.153
CCGTGGGC	0.165
AGTTTGAG	0.0666
AGTATGAA	0.136
CAGAGGGC	-0.133
ACTACAGG	-0.0412
ATGACGAA	0.0832
CTACCAGC	-0.275
ACTCGGAC	0.208

Sequence	PBM E-score
CATAGTAG	-0.092
CTATGAGC	-0.119
AAGTCCCC	-0.18
AACCCGGG	0.325
GAGGGTGA	-0.124
TAGCTAGA	0.0272
AAGTACGG	0.00519
AATGCCGC	0.199
CGGCACCG	0.346
GAACAACC	0.115
CACGACTC	-0.065
CAATGCTC	-0.0842
ATTGTAAG	-0.113
CAAACTTG	0.0441
GCAGTCGC	-0.128
ATAGGGGA	-0.191
GGCCGTGA	0.22
ATGAGGCA	-0.215
GACGTTGC	0.00411
ATATGCGC	-0.0739
ATATCATA	0.227
AGGTACCC	-0.34
CTTATAGC	0.024
CATCCAAC	-0.126
GATGTCGA	0.128

Sequence	PBM E-score
CTAAGCCC	-0.0913
AATATTTC	0.274
AGTTTGCG	-0.0989
TAGGAGCA	-0.221
AAGAATGG	-0.00899
CTGCCCTA	-0.129
CGATCGTA	0.0612
AACTGGCG	-0.0873
CTACCTAG	-0.159
AAGGTAAT	0.19
CGAGGGAC	-0.288
ACGGAATC	0.301
AAAAGTCG	0.0531
GTGATTAA	0.107
GATTCTAC	-0.00683
TCGAGAGA	-0.0561
GCACGACA	-0.119
GCAGCCAC	-0.163
ATACTCCA	-0.081
ACCCTGTG	-0.124
CCCGGTTA	0.108
CGAACTCA	0.0627
AAACCAGT	-0.138
CGGCCGCA	0.277
CAATCTCA	-0.144

Sequence	PBM E-score
AACTCCAT	-0.0972
GCGGTTCC	0.0822
AAACGCGT	0.0256
ATGACACA	0.0871
CTTCCTCA	-0.13
AATTGATA	0.211
ATGATCGC	-0.0434
CCCCTCTC	-0.322
AGCGGGAA	0.104
CCTTAACC	-0.185
CGGATACA	0.223
AATTGACG	-0.0892
ACGATTAC	-0.071
GATTAGGC	0.0479
CATGGCCA	-0.273
CCAGAGCA	0.00451
AGATCCTG	0.00801
CAGTACCA	-0.122
CAGTGGAA	-0.114
GTTACGCA	-0.193
CCGCATCA	-0.00437
ATACGCTG	-0.0886
ATTCTATA	0.136
TCCTATCA	-0.135
CATGGGCG	-0.0541

Sequence	PBM E-score
CTAAGGTC	-0.265
GGACGAGA	0.0132
CTACAAGC	-0.0551
GGTAGCGA	-0.0503
CTCGTTCC	-0.0129
ACAAAATG	0.102
CGAGACCA	0.0505
CGTCACAA	0.103
ATTCGTAA	0.111
GATACCGC	0.0794
ATCATGTA	0.00394
CAGTTAGA	-0.0352
GCCTGAGA	0.0005
AAGAACTC	0.0694
ATGTCATG	0.128
GCAAGCAC	-0.278
TATACACA	0.0954
CATATGTA	-0.123
GACGTAGC	-0.225
ACGCTACG	-0.104
CTGTCCTC	-0.197
GTCAGGTA	-0.0961
ATAGAGCA	0.0523
GTATGTGA	0.0229
CGTAAACA	0.145

Quoted from the listing.
PBM E-score, CATATGTA is entered as -0.123
PBM E-score, CAGTTAGA is entered as -0.0352
PBM E-score, GGTAGCGA is entered as -0.0503
PBM E-score, TATACACA is entered as 0.0954
PBM E-score, GGACGAGA is entered as 0.0132
PBM E-score, CGTCACAA is entered as 0.103
PBM E-score, GTCAGGTA is entered as -0.0961

(list continues)

Sequence	PBM E-score
CTTCATTA	0.17
AGCTGACG	-0.142
GGACCAAC	-0.0189
TAGCTTCA	-0.132
CGACATGA	0.0941
TAGTGATA	-0.199
CTACTTCC	0.156
AAATGGGC	-0.138
CGAGGTAC	-0.0351
ATATTCTA	0.205
TGTATACA	0.243
GTGCATTA	0.0431
GCAGCCTA	-0.0954
ATTTAAGC	0.178
CGAATCCA	0.00735
TCCCTTCA	-0.0303
ACACCCAG	-0.22
AATAAGGG	-0.104
CTATCCAA	-0.206
AACATCGG	0.134
CACATCGG	-0.0256
GGCACCTA	-0.115
AGCATCTA	-0.167
AGAGAATA	0.0273
AAACATTG	-0.0276

Sequence	PBM E-score
AGTCGAGC	-0.266
AGTAATTC	0.243
AGCGCATG	-0.211
CATTAGCG	-0.128
AGCAGAAA	0.152
ATGCTCAG	-0.0136
AGAGATGA	-0.00076
GTTCATGA	0.171
CTCAATAC	0.0593
ATGAAGCA	-0.0497
ACTTTGAC	0.151
GATTCCTA	0.00947
ACTAGAAA	-0.00189
AACCCAAC	-0.102
TAGTCCCA	-0.186
GGAGATGA	0.0659
AAACGAAC	0.198
CGCTACCA	-0.157
TACGAGCA	-0.156
CAACACCA	-0.113
GGTGATGA	-0.0976
GGTCAACA	0.0649
CATCAACC	-0.00043
CATTTTGC	0.0771
AGGGATAC	-0.124

Sequence	PBM E-score
AACCAGCG	0.0254
GTTGCTGA	0.0495
CCTTTTCC	-0.0798
ACAAACAC	0.17
CTCGAGAA	0.0249
GTAAAACA	-0.098
AGTAGTTA	-0.0726
AGTCGGAT	0.198
ATGCTAGG	-0.151
CGCTATGA	-0.0231
GCTGGTAA	-0.00124
CGGCATCA	0.283
AAGTCATT	-0.189
CAATGAGC	-0.0433
TATAAAAA	0.373
AGAGGTAG	-0.213
CGGCGTCC	0.205
CGAGCCCA	-0.128
ACCGCTAC	-0.101
